Results are given in words; binding and its absence hold for the method and conditions named. For some assays here: In cells and extracts the contact can be indirect. Some entries that bind do so weakly or less than the wild type. For some assays here: Sequences can lack the tags named with a protein.
T1: 3xFLAG-Pmp23 (S. pneumoniae) (UniProt Q8DPY9)
T1 sequence: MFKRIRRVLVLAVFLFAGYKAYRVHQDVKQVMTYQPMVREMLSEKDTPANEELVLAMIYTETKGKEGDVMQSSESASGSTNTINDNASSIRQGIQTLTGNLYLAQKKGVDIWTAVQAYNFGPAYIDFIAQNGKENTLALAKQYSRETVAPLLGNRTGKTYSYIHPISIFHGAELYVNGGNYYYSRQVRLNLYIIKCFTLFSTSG

Protein sequences, listed by entry. Tags and fused reporters are not part of them. Residues count along the entry.
UniProt P02769, residues 25-607: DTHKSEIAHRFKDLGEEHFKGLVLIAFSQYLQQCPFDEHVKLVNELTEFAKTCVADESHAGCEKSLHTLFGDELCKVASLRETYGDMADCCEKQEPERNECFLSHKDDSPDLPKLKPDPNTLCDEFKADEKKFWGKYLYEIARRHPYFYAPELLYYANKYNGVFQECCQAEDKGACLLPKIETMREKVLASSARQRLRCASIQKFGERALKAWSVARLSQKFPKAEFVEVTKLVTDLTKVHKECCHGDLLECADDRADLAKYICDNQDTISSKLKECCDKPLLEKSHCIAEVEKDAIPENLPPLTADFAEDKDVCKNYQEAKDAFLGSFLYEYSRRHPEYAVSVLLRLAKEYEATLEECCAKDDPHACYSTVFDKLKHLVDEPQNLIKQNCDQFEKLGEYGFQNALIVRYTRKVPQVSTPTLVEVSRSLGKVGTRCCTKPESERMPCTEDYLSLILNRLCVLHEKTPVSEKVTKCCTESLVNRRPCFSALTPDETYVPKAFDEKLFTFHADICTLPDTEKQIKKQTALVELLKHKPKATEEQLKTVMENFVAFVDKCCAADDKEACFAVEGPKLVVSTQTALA


Key:
[1] = target: GST-Pmp23 (S. pneumoniae) (UniProt Q8DPY9); assay: MST; 100 nM GST-Pmp23 labeled with NT-647, titrated with PBP2x (7 nM to 235 μM) or BSA (5 nM to 360 μM); 25 °C; 50 mM Tris-HCl, 150 mM NaCl, 10 mM MgCl2, 0.05% Tween-20; triplicates; both purified
[2] = target: T1, 3xFLAG-Pmp23 (S. pneumoniae); assay: co-IP; anti-FLAG agarose resin on Triton X-100 (2%) solubilized membrane proteins of S. pneumoniae expressing 3xflag-pmp23; 5 h at 4 °C; elution with FLAG peptide; Western blot with anti-PBP2x serum and anti-FLAG antibodies

| binding [2] | Molecule | binding [1] |
| --- | --- | --- |
| – | BSA (bovine serum albumine) (from UniProt P02769 25-607) | no binding (tested: 360 μM) |
| binds | PBP2x (enzyme, UniProt P59676 1-750) MKWTKRVIRYATKNRKSPAENRRRVGKSLSLLSVFVFAIFLVNFAVIIGTGTRFGTDLAKEAKKVHQTTRTVPAKRGTIYDRNGVPIAEDATSYNVYAVIDENYKSATGKILYVEKTQFNKVAEVFHKYLDMEESYVREQLSQPNLKQVSFGAKGNGITYANMMSIKKELEAAEVKGIDFTTSPNRSYPNGQFASSFIGLAQLHENEDGSKSLLGTSGMESSLNSILAGTDGIITYEKDRLGNIVPGTEQVSQRTMDGKDVYTTISSPLQSFMETQMDAFQEKVKGKYMTATLVSAKTGEILATTQRPTFDADTKEGITEDFVWRDILYQSNYEPGSTMKVMMLAAAIDNNTFPGGEVFNSSELKIADATIRDWDVNEGLTGGRMMTFSQGFAHSSNVGMTLLEQKMGDATWLDYLNRFKFGVPTRFGLTDEYAGQLPADNIVNIAQSSFGQGISVTQTQMIRAFTAIANDGVMLEPKFISAIYDPNDQTARKSQKEIVGNPVSKDAASLTRTNMVLVGTDPVYGTMYNHSTGKPTVTVPGQNVALKSGTAQIADEKNGGYLVGLTDYIFSAVSMSPAENPDFILYVTVQQPEHYSGIQLGEFANPILERASAMKDSLNLQTTAKALEQVSQQSPYPMPSVKDISPGDLAEELRRNLVQPIVVGTGTKIKNSSAEEGKNLAPNQQVLILSDKAEEVPDMYGWTKETAETLAKWLNIELEFQGSGSTVQKQDVRANTAIKDIKKITLTLGD | – |

From PMC5954120
